# Measurements taken from PMC11490702.
# Changes are numbered by the printed parent chain. These are yes or no findings as the source states them, for the method shown. In cells and extracts the contact can be indirect. For some of these results: Binding calls can cover weak binding; strength is not graded here. For some of these results: Where a sequence is shown, tags or fusion partners need not be part of it.
# How the values were obtained:
# Flag-OGT-WT [1] = molecular target: T1, Flag-OGT-WT (UniProt O15294); assay: co-IP; cells transfected with Flag-OGT-WT or -S20A; endogenous 14-3-3ε detected with 14-3-3ε antibody
# T1 sequence: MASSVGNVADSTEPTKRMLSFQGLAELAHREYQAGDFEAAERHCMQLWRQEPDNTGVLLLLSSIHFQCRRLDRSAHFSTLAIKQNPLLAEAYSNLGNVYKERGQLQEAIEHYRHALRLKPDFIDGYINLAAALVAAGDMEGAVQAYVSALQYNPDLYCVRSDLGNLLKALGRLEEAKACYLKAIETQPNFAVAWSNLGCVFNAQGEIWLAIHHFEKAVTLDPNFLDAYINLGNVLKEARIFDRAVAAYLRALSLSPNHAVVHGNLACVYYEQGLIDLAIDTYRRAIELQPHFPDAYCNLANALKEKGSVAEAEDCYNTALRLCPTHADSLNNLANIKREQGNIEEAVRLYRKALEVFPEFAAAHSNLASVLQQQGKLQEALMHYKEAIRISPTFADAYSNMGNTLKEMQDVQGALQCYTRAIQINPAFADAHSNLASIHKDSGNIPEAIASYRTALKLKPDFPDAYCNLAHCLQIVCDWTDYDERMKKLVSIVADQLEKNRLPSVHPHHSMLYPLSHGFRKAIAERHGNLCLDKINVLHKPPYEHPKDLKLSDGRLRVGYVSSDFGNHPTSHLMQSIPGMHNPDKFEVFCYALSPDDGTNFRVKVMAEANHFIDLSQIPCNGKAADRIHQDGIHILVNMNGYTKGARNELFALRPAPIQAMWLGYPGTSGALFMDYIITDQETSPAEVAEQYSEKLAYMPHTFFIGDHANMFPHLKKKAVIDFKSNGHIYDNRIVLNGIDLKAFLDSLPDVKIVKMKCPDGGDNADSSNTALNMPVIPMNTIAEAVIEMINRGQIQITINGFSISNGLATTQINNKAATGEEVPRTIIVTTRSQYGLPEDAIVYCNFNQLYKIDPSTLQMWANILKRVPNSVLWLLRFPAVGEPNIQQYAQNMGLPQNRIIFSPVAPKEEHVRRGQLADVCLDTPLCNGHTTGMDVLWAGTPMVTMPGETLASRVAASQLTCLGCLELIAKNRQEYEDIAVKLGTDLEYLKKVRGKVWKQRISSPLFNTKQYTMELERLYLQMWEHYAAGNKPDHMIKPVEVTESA
# [2] = molecular target: T2, endogenous OGT (human (endogenous in HeLa or HEK293T)) (UniProt O15294); assay: co-IP; endogenous OGT and endogenous 14-3-3ε (14-3-3ε antibody); cells with or without Nocodazole (M phase)
# T2 sequence: T1 sequence
# Flag-OGT-S20A = molecular target: T3, Flag-OGT-S20A (UniProt O15294); assay: co-IP; cells co-transfected with Flag-OGT (WT or S20A) and HA-14-3-3 isoforms; immunoprecipitated with anti-Flag
# T3 sequence: T1 sequence with S20A
# Flag-OGT-WT [3] = molecular target: T1, Flag-OGT-WT; assay: as above
# [4] = molecular target: T2, endogenous OGT (human (endogenous in HeLa or HEK293T)); assay: co-IP; endogenous OGT and endogenous 14-3-3 (pan-14-3-3 antibody)
# HA-OGT-S20A = molecular target: T4, HA-OGT-S20A (UniProt O15294); assay: co-IP; cells transfected with HA-OGT (WT or S20A), with or without Flag-Chk1; immunoprecipitated with anti-HA, blotted with anti-pan 14-3-3
# T4 sequence: T1 sequence with S20A
# HA-OGT-WT = molecular target: T5, HA-OGT-WT (UniProt O15294); assay: as above
# T5 sequence: T1 sequence
substance,measurement,setting,value
endogenous 14-3-3ε (human (endogenous in HeLa or HEK293T)),binding,Flag-OGT-WT [1],binds
same,binding,[2],binds
HA-14-3-3ε,binding,Flag-OGT-S20A,no binding
same,binding,Flag-OGT-WT [3],binds
endogenous 14-3-3 (detected with a pan-14-3-3 antibody) (human (endogenous in HeLa or HEK293T)),binding,[4],binds
same,binding,HA-OGT-S20A,binds
same,binding,HA-OGT-WT,binds
